According to PubChem BioAssay AID651768 (National Center for Advancing Translational Sciences (NCATS), 2012):
In all, about 360,000 compounds went through this assay and about 1,700 (0.47%) were called active. This list was built around the results that the source calls inconclusive (neither active nor inactive); the mix of calls is not that of the screen. Calls come from the whole dose curve; as a rule, active = well fitted inhibition curve with a large enough effect; inconclusive = small, poorly fitted or top-dose-only effect; inactive = no such curve, though single readings can be large or run the other way. Potencies of inconclusive entries are doubtful fits and often do not repeat.

The chains behind the UniProt entries cited, without tags or fusion partners.
UniProt Q14191, whole entry, looked up: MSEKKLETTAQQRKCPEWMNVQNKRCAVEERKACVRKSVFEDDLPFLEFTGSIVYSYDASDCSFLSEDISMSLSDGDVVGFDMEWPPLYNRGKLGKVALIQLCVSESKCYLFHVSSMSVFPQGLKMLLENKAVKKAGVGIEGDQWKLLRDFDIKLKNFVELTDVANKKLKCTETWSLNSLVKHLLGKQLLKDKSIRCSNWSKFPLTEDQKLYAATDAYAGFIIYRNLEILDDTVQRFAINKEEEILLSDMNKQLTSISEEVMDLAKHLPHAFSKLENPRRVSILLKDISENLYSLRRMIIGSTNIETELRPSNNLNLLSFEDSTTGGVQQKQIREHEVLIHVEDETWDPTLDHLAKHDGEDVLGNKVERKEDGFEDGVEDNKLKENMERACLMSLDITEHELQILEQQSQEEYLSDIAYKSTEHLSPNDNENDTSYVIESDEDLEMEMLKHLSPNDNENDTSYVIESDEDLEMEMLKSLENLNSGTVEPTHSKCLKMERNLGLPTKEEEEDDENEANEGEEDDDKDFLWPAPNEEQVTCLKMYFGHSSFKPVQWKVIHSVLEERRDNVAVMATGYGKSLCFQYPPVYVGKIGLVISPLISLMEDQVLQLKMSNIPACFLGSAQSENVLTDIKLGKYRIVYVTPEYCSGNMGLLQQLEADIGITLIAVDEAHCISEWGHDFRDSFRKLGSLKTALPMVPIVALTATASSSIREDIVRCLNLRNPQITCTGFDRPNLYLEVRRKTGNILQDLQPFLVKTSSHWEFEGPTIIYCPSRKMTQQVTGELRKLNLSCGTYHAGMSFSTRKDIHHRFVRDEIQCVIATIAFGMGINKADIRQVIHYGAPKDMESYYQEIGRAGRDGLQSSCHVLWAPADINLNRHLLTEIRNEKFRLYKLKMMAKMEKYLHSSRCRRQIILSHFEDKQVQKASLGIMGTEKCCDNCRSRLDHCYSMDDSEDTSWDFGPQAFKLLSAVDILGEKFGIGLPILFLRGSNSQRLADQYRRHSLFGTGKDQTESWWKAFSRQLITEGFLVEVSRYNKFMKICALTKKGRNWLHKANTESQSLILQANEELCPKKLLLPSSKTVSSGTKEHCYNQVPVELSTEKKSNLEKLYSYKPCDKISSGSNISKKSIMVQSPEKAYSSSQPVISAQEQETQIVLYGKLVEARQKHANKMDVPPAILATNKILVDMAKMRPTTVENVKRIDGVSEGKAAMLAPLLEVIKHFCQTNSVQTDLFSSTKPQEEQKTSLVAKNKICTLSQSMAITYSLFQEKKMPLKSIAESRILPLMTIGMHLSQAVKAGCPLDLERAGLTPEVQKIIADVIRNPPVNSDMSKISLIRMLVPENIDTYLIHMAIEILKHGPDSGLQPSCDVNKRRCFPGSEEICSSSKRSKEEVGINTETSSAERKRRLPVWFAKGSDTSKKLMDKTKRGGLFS

Target: Bifunctional 3'-5' exonuclease/ATP-dependent helicase WRN (Homo sapiens) (UniProt Q14191)
Assay: qHTS for Inhibitors of WRN Helicase; note: nearly all actives have a fitted effect of over 55% in size
Details: WRN helicase unwinding, fluorescent forked duplex, kinetic; activity change, negative = inhibition: at 114 µM (top of the series) unless noted
Excerpt: Inhibition of DNA repair is proposed as a strategy for combating cancer. Synthetic lethality is an approach that exploits preexisting DNA repair deficiencies in certain tumors to develop inhibitors of DNA repair pathways that compensate for the tumor-associated DNA repair deficiency. Because helicases play critical roles in the DNA damage response and in DNA repair, particularly in actively dividing and replicating cells, characterization of synthetic lethal relationships of DNA helicases may be of value in developing improved anticancer treatment strategies; moreover, small molecules that specifically target a given DNA helicase may be useful for understanding its role in cellular nucleic acid metabolism. The goal of this project is to identify small molecule, non-covalent chemical inhibitors of the Werner syndrome (WS) helicase (WRN), which plays an important role in cell proliferation, the replication stress response, and DNA repair. […] The WRN gene product that is defective in the chromosomal instability disorder has DNA helicase and exonuclease activities and interacts with a number of nuclear proteins to maintain genomic stability. We will employ an optimized high-throughput screening assay that utilizes a fluorescence intensity modulation scheme with a fluorophore and quencher positioned near one another within a duplex deoxyoligonucleotide that contains a single forked structure. After a high-throughput screen of the ~350,000-member Molecular Libraries Small Molecule Repository (MLSMR) collection, followed by data analysis and hit selection, a panel of confirmatory, as well as secondary and ternary, assays will be employed to identify high-confidence WRN inhibitors. Structure-activity relationships will be investigated for the top candidate inhibitor series through medchem expansion. These are the results of the primary screening campaign against the MLSMR. NIH Chemical Genomics Center [NCGC] NIH Molecular Libraries Probe Centers Network [MLPCN] MLPCN Grant: MH096530 Assay Submitter (PI): Robert Brosh, National Institute of Aging
Three muL of reagents (buffer in columns 3 and 4 as negative controls; WRN at 20 nM final concentration in columns 1 and 2 as positive controls; columns 5-48 as test reactions) will be dispensed into a 1536-well Greiner black plate via solenoid-valve based nanoliter dispensers. Compounds (23 nL each in columns 5-48) and control (23 nL each in column 2 as dose-response) will be transferred via a Kalypsys pintool equipped with a 1536-pin array. Plates will be incubated for 15 min at room temperature, and then 1 µL of substrate (100 nM forked duplex oligonucleotide and 2 mM ATP final concentrations) will be added to start reaction, and plate will be transferred into a ViewLux high-throughput CCD imager where reaction progress is measured in kinetic mode using standard red-fluorescence optics (excitation filter 525 nm, emission filter 598 nm).
% is set by controls: 0 for no effect and ±100 for the full control effect; potency is the fitted concentration of half-maximal effect.

| Structure (SMILES) | Potency | activity change, negative = inhibition |
| --- | --- | --- |
| Cc1ccc(S(=O)(=O)CC(=O)Nc2nnc(C(C)C)s2)cc1 | inconclusive: 89.1 µM [inhibitor, single point] |  |
| O=S(OCCN1CCOCC1)C(c1ccccc1)c1ccccc1 (stereo unspecified) |  | inactive: 4.45% |
| O=C(c1ccc(O)c(Cl)c1)N1CCN(S(=O)(=O)c2ccccc2)CC1 | inconclusive: 39.8 µM [inhibitor, single point] |  |
| O=C(NCCNC(=O)c1ccc(Cl)cc1Cl)c1ccc(Cl)cc1Cl |  | inactive: -2.55% [at 57.1 µM] |
| NS(=O)(=O)c1cccc(NC(=O)CSc2nnnn2-c2ccccc2)c1 |  | inactive: -0.677% |
| O=C(NCc1ccco1)C1CC(=O)N(c2ccc(O)cc2)C1 (stereo unspecified) |  | inactive: -20.5% |
| O=C(Cc1ccc(Cl)cc1Cl)Nc1cccc(S(=O)(=O)Nc2ccccc2F)c1 | active: 56.2 µM |  |
| Cc1ccc2nc(-c3ccc(SCC(=O)Nc4nc(C)cs4)nc3)[nH]c2c1 | inconclusive: 10 µM [inhibitor, partial curve] |  |
| CC(C)n1c(SCC(=O)Nc2ccc(F)cc2)nnc1C1CC1 | inconclusive: 89.1 µM [inhibitor, single point] |  |
| O=c1[nH]cnc2ncc(-c3ccc(O)cc3)nc12 | inconclusive: 22.4 µM [inhibitor, full curve, poor fit] |  |
| Cc1ccc(C(=O)O)cc1N=Cc1cc(Br)cc(Br)c1O | inconclusive: 50.1 µM [inhibitor, partial curve] |  |
| CC1(OC(=O)C2CCCC2)C(=O)C=C2C=C3CCCCN3C=C2C1=O (stereo unspecified) |  | inactive: 5.72% |
| Cc1nnc(NC(=O)CSc2nnc3c(n2)[nH]c2ccc(Br)cc23)s1 | inconclusive: 17.8 µM [inhibitor, partial curve] |  |
| CN(C)CCNc1ccc(CO)c2sc3ccc(O)cc3c(=O)c12 | inconclusive: 28.2 µM [inhibitor, full curve] |  |
| COc1cc(/C=C(\C#N)C(=O)c2c[nH]c3ccccc23)cc(OC)c1O | inconclusive: 39.8 µM [inhibitor, full curve] |  |
| CNCc1ccccc1Sc1cc(O)ccc1O | active: 31.6 µM |  |
| CCOC(=O)c1sc(=S)n(-c2ccccc2)c1NC(C)=O | inconclusive: 31.6 µM [inhibitor, partial curve] |  |
| CN(C)CCCN(C(=O)c1cc2cc([N+](=O)[O-])ccc2s1)c1nc2cc3c(cc2s1)OCCO3 | inconclusive: 31.6 µM [inhibitor, partial curve] |  |
| CCNc1nc(NCC)n2c(SCC(=O)Nc3ccc(Br)cc3F)nnc2n1 | inconclusive: 79.4 µM [inhibitor, partial curve] |  |
| Cc1ccc(NC(=O)CC2SC(=Nc3ccc(O)cc3)NC2=O)cc1 (stereo unspecified) | inconclusive: 70.8 µM [inhibitor, single point] |  |
| C/C=C/c1ccc(OCCCCOc2c(OC)cccc2OC)c(OC)c1 | inconclusive: 39.8 µM [inhibitor, single point] |  |
| CCn1cc(/C=C/C(=O)Nc2ccc(C)cc2Br)cn1 |  | inactive: 6.06% |
| COc1cc(-c2n[nH]c(=S)n2-c2ccccc2C(F)(F)F)cc(OC)c1OC | inconclusive: 5.01 µM [inhibitor, full curve, poor fit] |  |
| O=C(NCCO)c1cc2ccccc2cc1O |  | inactive: -6.42% |

| Structure (SMILES) | Potency | activity change, negative = inhibition |
| --- | --- | --- |
| FC(F)(F)c1cc(C(F)(F)F)c2ccc(N3CCN(c4ncccn4)CC3)nc2n1 |  | inactive: 8.31% |
| Cc1ccc2nc(NC(=O)CSc3nc4c(c(=O)n3C)SC(C)C4)sc2c1 (stereo unspecified) |  | inactive: -9.94% |
| O=C(O)CCc1ccc(S(=O)(=O)Nc2cc(C(F)(F)F)ccc2N2CCCC2)cc1 | inconclusive: 56.2 µM [inhibitor, partial curve, poor fit] |  |
| COc1ccc(N(CC(=O)NCc2ccco2)S(=O)(=O)c2ccc(C)cc2)cc1OC |  | inactive: 4.78% |
| CCOC(=O)c1c(NC(=O)CSc2nnc(C)c(=O)[nH]2)sc2c1CCCC2 |  | inactive: -13.2% |
| O=C(CN1C(=O)/C(=C\c2ccco2)SC1=S)Nc1ccc(O)cc1C(=O)O | active: 50.1 µM |  |
| Cc1sc(NC(=O)CSc2nc(O)cc(=O)[nH]2)nc1-c1ccccc1 | inconclusive: 28.2 µM [inhibitor, full curve] |  |
| C/C(=N\NC(=O)c1cc(-c2cccc([N+](=O)[O-])c2)n[nH]1)c1ccccc1O | inconclusive: 79.4 µM [inhibitor, partial curve] |  |
| Cc1ccc(-c2nn(-c3ccccc3)cc2/C=C2\SC(=S)N(CCCCCC(=O)O)C2=O)o1 | inconclusive: 15.8 µM [inhibitor, partial curve, poor fit] |  |
| Cc1ccc(S(=O)(=O)Nn2c(C)ccc2C)cc1 |  | inactive: -3.01% |
| CCN1CCN(CCNC(=O)c2ccc3nc(-c4cccc(C)c4)c(-c4cccc(C)c4)nc3c2)CC1 |  | inactive: 5.96% [at 57.1 µM] |
| COc1cccc(CNC(=O)c2ccccc2SCC(=O)N2CCCC2)c1 | inconclusive: 20 µM [inhibitor, full curve] |  |
| CC(C)(C)c1ccc(-c2ncccc2O)cc1 | inconclusive: 56.2 µM [inhibitor, partial curve, poor fit] |  |
| Cc1ccc(/C=C2\SC(=S)N(C3CCS(=O)(=O)C3)C2=O)o1 (stereo unspecified) | inconclusive: 50.1 µM [inhibitor, partial curve] |  |
| O=S(=O)(Nc1nnc(-c2ccccc2)s1)c1ccc(Cl)cc1 |  | inconclusive: -37.5% [inhibitor] [at 57.1 µM] |
| COCCN(C(=O)CSc1nc2ccccc2s1)c1c(N)n(Cc2ccccc2)c(=O)[nH]c1=O | inconclusive: 22.4 µM [inhibitor, single point] |  |
| CC(=O)Nc1ccc(NC(=O)Cc2ccc(S(=O)(=O)N3CCCCC3)s2)cc1 | inconclusive: 35.5 µM [inhibitor, single point] |  |
| COc1cc(O)c(C(C)=O)c(CC(=O)O)c1 | active: 44.7 µM |  |
| O=C(CN1C(=O)S/C(=C\c2ccc(Cl)cc2)C1=O)NNC(=O)c1ccccc1O | inconclusive: 100 µM [inhibitor, partial curve, poor fit] |  |
| O=C(N/N=C/c1ccccn1)c1c[nH]c2ccccc12 | inconclusive: 10 µM [inhibitor, full curve] |  |
| COc1ccc(CCC(=O)OCc2csc(CC(=O)Nc3ccccc3C)n2)cc1 | inconclusive: 39.8 µM [inhibitor, full curve, poor fit] |  |
| C=CCNC(=O)COC(=O)c1c2c(nc3ccccc13)CCC2 | inconclusive: 56.2 µM [inhibitor, partial curve] |  |
| COC(=O)C1(C(=O)OC)C[C@H](c2ccc(OC)cc2)N(Cc2ccccc2OC)[C@@H]1c1ccc(OC)cc1 |  | inactive: -11.3% |
| Cc1ccc2oc(=O)c3cc(C(=O)NCCCN4CCc5ccccc5C4)sc3c2c1 |  | inactive: 7.64% |

Filtered by structure: the entries above with a CF3 group (3)

| Structure (SMILES) | Potency | activity change, negative = inhibition |
| --- | --- | --- |
| COc1cc(-c2n[nH]c(=S)n2-c2ccccc2C(F)(F)F)cc(OC)c1OC | inconclusive: 5.01 µM [inhibitor, full curve, poor fit] |  |
| FC(F)(F)c1cc(C(F)(F)F)c2ccc(N3CCN(c4ncccn4)CC3)nc2n1 |  | inactive: 8.31% |
| O=C(O)CCc1ccc(S(=O)(=O)Nc2cc(C(F)(F)F)ccc2N2CCCC2)cc1 | inconclusive: 56.2 µM [inhibitor, partial curve, poor fit] |  |

Carrying on:

| Structure (SMILES) | Potency | activity change, negative = inhibition |
| --- | --- | --- |
| Cc1ccc(-c2ccc3c(c2)O[C@H](CN(C)C(=O)Nc2ccc(C(F)(F)F)cc2)[C@H](C)CN([C@H](C)CO)S3(=O)=O)cc1 |  | inactive: -13.3% |
| O=C(O)c1ccccc1N/N=C/C1=C(N2CCOCC2)C(=C\c2ccccc2)/CC1 | inconclusive: 79.4 µM [inhibitor, partial curve] |  |
| COc1ccc(C2=CC3=C(Br)C(=O)C(C)(OC(=O)C4CCCC4)C(=O)C3=CO2)cc1 (stereo unspecified) | inconclusive: 56.2 µM [inhibitor, partial curve] |  |
| CCOC(=O)C1=CCN(S(=O)(=O)c2ccccc2F)C1c1cccc(C)c1 (stereo unspecified) |  | inactive: 0.594% |
| COc1cccc2c1Oc1ncccc1N(C(=O)CCC(=O)NCc1ccc(F)cc1)C2 |  | inactive: 2.02% |
| COc1ccccc1C(=O)NCC(=O)OCC(=O)Nc1ccc2[nH]c(=O)[nH]c2c1 |  | inactive: -29.5% |
| CN(C(=O)CSc1nnc(Nc2ccccc2F)s1)C1CCS(=O)(=O)C1 (stereo unspecified) | inconclusive: 28.2 µM [inhibitor, full curve] |  |
| CCSCCNC(=O)c1cc(-n2cnnc2)ccc1Cl |  | inactive: 3.43% |
| O=C1N=C(N2CCN(c3ccccc3)CC2)S/C1=C\c1ccco1 |  | inactive: -8.1% |
| CCOC(=O)c1cnc(-c2ccccc2O)nc1Cl | inconclusive: 20 µM [inhibitor, full curve, poor fit] |  |
| COC(=O)C1=C2SCC(=O)N2C(N)=C(C#N)C1 | inconclusive: 31.6 µM [inhibitor, single point] |  |
| O=S(=O)(Nc1c(O)ccc2ccccc12)c1cccc2ccccc12 | active: 22.4 µM |  |
| O=C(NCc1cc([N+](=O)[O-])ccc1O)c1cccnc1Sc1ccc(Cl)cc1 | inconclusive: 39.8 µM [inhibitor, partial curve] |  |
| O=C(N/N=C/c1cccnc1)c1cccc(NC(=O)c2ccc(Cl)cc2)c1 | inconclusive: 79.4 µM [inhibitor, single point] |  |
| O=C(O)c1ccc(-n2cccc2/C=C2/NC(=O)N(c3cccc(Cl)c3)C2=O)cc1 | inconclusive: 2.67 µM [inhibitor, partial curve] |  |
| COc1ccccc1C(CNC(=O)c1cccc(S(=O)(=O)Nc2ccc(F)cc2)c1)N1CCCC1 (stereo unspecified) | inconclusive: 28.2 µM [inhibitor, single point] |  |
| O=C1NC(=O)/C(=C\c2ccc(Oc3cnccn3)cc2)S1 |  | inactive: -7.63% [at 57.1 µM] |
| O=C1N/C(=N/Nc2ccccc2)S/C1=C\c1ccccc1 |  | inactive: -18.6% |
| CCC1(C)OC(=O)N(CCCn2ccnc2C)C1(C)O (stereo unspecified) |  | inactive: 0% |
| Cc1ccc(CSC2=Nc3ccccc3C3=NC(CCC(=O)NCc4ccco4)C(=O)N23)cc1 (stereo unspecified) |  | inactive: 0.828% |
| C=CCn1c(SCC(=O)c2[nH]c(C)c(C(=O)OCC)c2C)nc2scc(-c3ccc(OC)c(OC)c3)c2c1=O | inconclusive: 39.8 µM [inhibitor, single point] |  |
| O=C1NN(c2ccc(Cl)cc2)C(=O)/C1=C\c1ccc(-c2cccc(C(=O)O)c2)o1 | inconclusive: 2.67 µM [inhibitor, partial curve] |  |
| CCCCCOC(=O)c1[nH]c2c(c1C)C(=O)C(C(=O)OC)C(C)C2 (stereo unspecified) | inconclusive: 89.1 µM [inhibitor, single point] |  |
